# Test results reported in the supplement of paper PMC10032668.
# Protein sequences, listed by entry. Tags and fused reporters are not part of them.
# SRSF9, Q13242, UniProt Q13242, whole entry: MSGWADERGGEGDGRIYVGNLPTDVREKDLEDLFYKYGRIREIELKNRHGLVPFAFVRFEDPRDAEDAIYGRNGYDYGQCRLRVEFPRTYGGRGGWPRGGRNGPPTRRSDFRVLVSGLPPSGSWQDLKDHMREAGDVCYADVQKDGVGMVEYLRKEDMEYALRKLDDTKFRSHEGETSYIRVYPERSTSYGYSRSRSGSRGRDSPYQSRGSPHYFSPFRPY
# TUBB8, Q3ZCM7, UniProt Q3ZCM7, whole entry: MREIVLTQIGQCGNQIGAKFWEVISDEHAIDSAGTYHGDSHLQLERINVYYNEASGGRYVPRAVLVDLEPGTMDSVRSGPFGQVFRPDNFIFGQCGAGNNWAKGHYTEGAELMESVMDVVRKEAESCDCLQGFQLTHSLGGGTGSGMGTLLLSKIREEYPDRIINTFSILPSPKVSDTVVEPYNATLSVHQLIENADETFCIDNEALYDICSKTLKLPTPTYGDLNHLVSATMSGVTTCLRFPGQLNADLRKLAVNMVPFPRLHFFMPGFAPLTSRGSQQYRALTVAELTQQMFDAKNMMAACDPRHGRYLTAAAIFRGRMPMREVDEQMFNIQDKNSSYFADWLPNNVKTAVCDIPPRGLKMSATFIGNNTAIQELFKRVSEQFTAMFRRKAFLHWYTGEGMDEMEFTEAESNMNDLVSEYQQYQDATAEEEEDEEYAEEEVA
# KPNA4, O00629, UniProt O00629, whole entry: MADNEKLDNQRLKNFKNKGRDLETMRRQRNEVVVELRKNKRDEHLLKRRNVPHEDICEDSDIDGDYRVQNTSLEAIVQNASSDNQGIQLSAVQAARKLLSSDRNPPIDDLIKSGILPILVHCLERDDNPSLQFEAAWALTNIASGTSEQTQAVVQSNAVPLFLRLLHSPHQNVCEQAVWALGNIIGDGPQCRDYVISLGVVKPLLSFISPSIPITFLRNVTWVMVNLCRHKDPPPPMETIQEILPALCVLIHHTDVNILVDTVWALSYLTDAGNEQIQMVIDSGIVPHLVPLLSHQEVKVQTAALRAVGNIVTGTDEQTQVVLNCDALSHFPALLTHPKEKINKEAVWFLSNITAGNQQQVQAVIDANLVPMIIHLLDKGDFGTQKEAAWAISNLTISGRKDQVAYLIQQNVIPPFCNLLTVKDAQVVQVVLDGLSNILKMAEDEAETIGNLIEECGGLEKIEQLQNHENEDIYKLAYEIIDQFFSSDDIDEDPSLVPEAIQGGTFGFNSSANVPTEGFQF
# ± gives the standard deviation of the averaged measurements. The list shows a part of the results. The list holds hits alone, and they repeat only in part.
# Experiments:
# Experiment in all cases: PRISMA enrichment of interactor (LFQ) in peptide spot vs all other peptide spots (log2 fold change); higher = stronger / more specific binding of the interactor to the peptide
# [1] = target: APLP2, Q06481
# Procedure: (§1)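 PRISMA: 221 full-length sORF-encoded peptides (3-15 aa), plus SOS1/GLUT1 control peptides, were spot-synthesized on cellulose membranes in triplicate. Membranes were incubated with HEK293T lysate, and bound proteins were identified by LC-MS/MS with LFQ. Enrichment is the log2 fold change versus all other peptide spots; only significant interactors are listed (cutoff c=6, x0=2.8).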
# [2] = target: MPHOSPH10, O00566
# Procedure: as §1
# [3] = target: APOD, P05090
# Procedure: as §1
# [4] = target: CD3EAP, O15446
# Procedure: as §1
# [5] = target: ETHE1, O95571
# Procedure: as §1
# [6] = target: EXD2, Q9NVH0
# Procedure: as §1
# [7] = target: FGF2, P09038
# Procedure: as §1
# [8] = target: FHOD1, Q9Y613
# Procedure: as §1
# [9] = target: PDIA5, Q14554
# Procedure: as §1
# [10] = target: RTF1, Q92541
# Procedure: as §1
# [11] = target: ASCC3, Q8N3C0
# Procedure: as §1
# [12] = target: CHCHD1, Q96BP2
# Procedure: as §1
# [13] = target: CLPB, Q9H078
# Procedure: as §1
# [14] = target: CTSA, P10619
# Procedure: as §1
# [15] = target: DERPC, P0CG12
# Procedure: as §1
# [16] = target: FGA, P02671
# Procedure: as §1
# [17] = target: GIT1, Q9Y2X7
# Procedure: as §1
# [18] = target: MT-ATP8, P03928
# Procedure: as §1
# [19] = target: PDCD6, O75340
# Procedure: as §1
# [20] = target: PSMC4, P43686
# Procedure: as §1
# [21] = target: UQCRQ, O14949
# Procedure: as §1
# [22] = target: ANP32B, Q92688
# Procedure: as §1
# [23] = target: ANP32E, Q9BTT0
# Procedure: as §1
# [24] = target: DAP3, P51398
# Procedure: as §1
# [25] = target: DDX21, Q9NR30
# Procedure: as §1
# [26] = target: HTATSF1, O43719
# Procedure: as §1
# [27] = target: LARP7, Q4G0J3
# Procedure: as §1
# [28] = target: MRPL10, Q7Z7H8
# Procedure: as §1
# [29] = target: MRPL11, Q9Y3B7
# Procedure: as §1
# [30] = target: MRPL15, Q9P015
# Procedure: as §1
# [31] = target: MRPL39, Q9NYK5
# Procedure: as §1
# [32] = target: MRPL9, Q9BYD2
# Procedure: as §1
# [33] = target: MRPS14, O60783
# Procedure: as §1
# [34] = target: MRPS26, Q9BYN8
# Procedure: as §1
# [35] = target: MRPS34, P82930
# Procedure: as §1
# [36] = target: MRPS35, P82673
# Procedure: as §1
# [37] = target: MRPS5, P82675
# Procedure: as §1
# [38] = target: NAP1L1, P55209
# Procedure: as §1
# [39] = target: NAP1L4, Q99733
# Procedure: as §1
# [40] = target: PPM1G, O15355
# Procedure: as §1
# [41] = target: PTCD3, Q96EY7
# Procedure: as §1
# [42] = target: RPLP1, P05386
# Procedure: as §1
# [43] = target: SRP19, P09132
# Procedure: as §1
# [44] = target: SRSF5, Q13243
# Procedure: as §1
# [45] = target: SRSF9, Q13242
# Procedure: as §1
# [46] = target: SSRP1, Q08945
# Procedure: as §1
# [47] = target: SUPT5H, O00267
# Procedure: as §1
# [48] = target: VCP, P55072
# Procedure: as §1
# [49] = target: ZC3H18, Q86VM9
# Procedure: as §1
# [50] = target: hCG_1984214
# Procedure: as §1
# [51] = target: ASCC2, Q9H1I8
# Procedure: as §1
# [52] = target: COIL, P38432
# Procedure: as §1
# [53] = target: COPZ1, P61923
# Procedure: as §1
# [54] = target: DDX23, Q9BUQ8
# Procedure: as §1
# [55] = target: LARP4, Q71RC2
# Procedure: as §1
# [56] = target: MRPS9, P82933
# Procedure: as §1
# [57] = target: SEPTIN8, Q92599
# Procedure: as §1
# [58] = target: TRAPPC3, O43617
# Procedure: as §1
# [59] = target: TUBB8, Q3ZCM7
# Procedure: as §1
# [60] = target: UBR4, Q5T4S7
# Procedure: as §1
# [61] = target: USP9X, Q93008
# Procedure: as §1
# [62] = target: ANXA1, P04083
# Procedure: as §1
# [63] = target: CC2D1A, Q6P1N0
# Procedure: as §1
# [64] = target: CSNK1A1, P48729
# Procedure: as §1
# [65] = target: CSNK1E, P49674
# Procedure: as §1
# [66] = target: FRYL, O94915
# Procedure: as §1
# [67] = target: PLK1, P53350
# Procedure: as §1
# [68] = target: RAE1, P78406
# Procedure: as §1
# [69] = target: WDR5, P61964
# Procedure: as §1
# [70] = target: AOC3, Q16853
# Procedure: as §1
# [71] = target: NQO2, P16083
# Procedure: as §1
# [72] = target: INTS3, Q68E01
# Procedure: as §1
# [73] = target: KPNA4, O00629
# Procedure: as §1
# [74] = target: LARP1, Q6PKG0
# Procedure: as §1
# [75] = target: MRPL37, Q9BZE1
# Procedure: as §1
# [76] = target: MRPS25, P82663
# Procedure: as §1
# [77] = target: MRPS28, Q9Y2Q9
# Procedure: as §1
# [78] = target: MRPS31, Q92665
# Procedure: as §1
# [79] = target: NDUFAB1, O14561
# Procedure: as §1
# [80] = target: NOB1, Q9ULX3
# Procedure: as §1
# [81] = target: RO60, P10155
# Procedure: as §1
binder,measurement,setting,value
MLSVGTPRL [TMEM87A],PRISMA enrichment of interactor (log2),[1],7.59
same,PRISMA enrichment of interactor (log2),[2],5.71
MADQDRKPA [TAX1BP1],PRISMA enrichment of interactor (log2),[3],4.28
same,PRISMA enrichment of interactor (log2),[4],5.24
same,PRISMA enrichment of interactor (log2),[5],4.13
same,PRISMA enrichment of interactor (log2),[6],7.92
same,PRISMA enrichment of interactor (log2),[7],6.93
same,PRISMA enrichment of interactor (log2),[8],7.56
same,PRISMA enrichment of interactor (log2),[9],6.54
same,PRISMA enrichment of interactor (log2),[10],5.9
MHLPTTLNH [SORBS1],PRISMA enrichment of interactor (log2),[11],6.21
same,PRISMA enrichment of interactor (log2),[12],4.7
same,PRISMA enrichment of interactor (log2),[13],4.47
same,PRISMA enrichment of interactor (log2),[14],5.15
same,PRISMA enrichment of interactor (log2),[15],8.82
same,PRISMA enrichment of interactor (log2),[16],4.73
same,PRISMA enrichment of interactor (log2),[17],4.34
same,PRISMA enrichment of interactor (log2),[18],6.2
same,PRISMA enrichment of interactor (log2),[19],6.46
same,PRISMA enrichment of interactor (log2),[20],5.03
same,PRISMA enrichment of interactor (log2),[21],5.04
MTSGRMRGR [ZNF677],PRISMA enrichment of interactor (log2),[22],6.72
same,PRISMA enrichment of interactor (log2),[23],7
same,PRISMA enrichment of interactor (log2),[24],5.94
same,PRISMA enrichment of interactor (log2),[25],5.69
same,PRISMA enrichment of interactor (log2),[26],6.02
same,PRISMA enrichment of interactor (log2),[27],4.88
same,PRISMA enrichment of interactor (log2),[28],5.39
same,PRISMA enrichment of interactor (log2),[29],4.82
same,PRISMA enrichment of interactor (log2),[30],5.16
same,PRISMA enrichment of interactor (log2),[31],5.79
same,PRISMA enrichment of interactor (log2),[32],5.9
same,PRISMA enrichment of interactor (log2),[33],4.64
same,PRISMA enrichment of interactor (log2),[34],5.07
same,PRISMA enrichment of interactor (log2),[35],5.25
same,PRISMA enrichment of interactor (log2),[36],5.4
same,PRISMA enrichment of interactor (log2),[37],5.17
same,PRISMA enrichment of interactor (log2),[38],7 ± 0.45
same,PRISMA enrichment of interactor (log2),[39],6.05
same,PRISMA enrichment of interactor (log2),[40],5.63
same,PRISMA enrichment of interactor (log2),[41],6.2
same,PRISMA enrichment of interactor (log2),[42],6.27
same,PRISMA enrichment of interactor (log2),[43],4.83
same,PRISMA enrichment of interactor (log2),[44],5.11
same,PRISMA enrichment of interactor (log2),[45],5.73
same,PRISMA enrichment of interactor (log2),[46],5.15
same,PRISMA enrichment of interactor (log2),[47],5.06
same,PRISMA enrichment of interactor (log2),[48],5.15
same,PRISMA enrichment of interactor (log2),[49],5.23
same,PRISMA enrichment of interactor (log2),[50],4.78
MKIRFVTPTTSKE [RP11-326I11.3],PRISMA enrichment of interactor (log2),[51],4.23
same,PRISMA enrichment of interactor (log2),[52],4.71
same,PRISMA enrichment of interactor (log2),[53],5.54
same,PRISMA enrichment of interactor (log2),[54],6.15
same,PRISMA enrichment of interactor (log2),[55],8.97
same,PRISMA enrichment of interactor (log2),[56],4.89
same,PRISMA enrichment of interactor (log2),[57],5.02
same,PRISMA enrichment of interactor (log2),[58],3.96
same,PRISMA enrichment of interactor (log2),[59],5.64
same,PRISMA enrichment of interactor (log2),[60],5.27
same,PRISMA enrichment of interactor (log2),[61],5.32
MRVGGSEDIF [ATG3],PRISMA enrichment of interactor (log2),[62],5.4
same,PRISMA enrichment of interactor (log2),[63],5.45
same,PRISMA enrichment of interactor (log2),[64],7.16
same,PRISMA enrichment of interactor (log2),[65],7.01
same,PRISMA enrichment of interactor (log2),[66],4.63
same,PRISMA enrichment of interactor (log2),[67],7.97
same,PRISMA enrichment of interactor (log2),[68],5.22
same,PRISMA enrichment of interactor (log2),[69],7.05
MAVAAAVGAA [PCM1],PRISMA enrichment of interactor (log2),[70],7.43
same,PRISMA enrichment of interactor (log2),[71],5.19
same,PRISMA enrichment of interactor (log2),[57],5.95
MRAQRTQGRWRRR [MGAT2],PRISMA enrichment of interactor (log2),[22],6.34
same,PRISMA enrichment of interactor (log2),[23],5.97
same,PRISMA enrichment of interactor (log2),[24],5.28
same,PRISMA enrichment of interactor (log2),[72],4.1
same,PRISMA enrichment of interactor (log2),[73],5.22
same,PRISMA enrichment of interactor (log2),[74],5.79
same,PRISMA enrichment of interactor (log2),[28],5.6
same,PRISMA enrichment of interactor (log2),[75],5
same,PRISMA enrichment of interactor (log2),[31],5.77
same,PRISMA enrichment of interactor (log2),[32],5.32
same,PRISMA enrichment of interactor (log2),[76],5.45
same,PRISMA enrichment of interactor (log2),[77],5.08
same,PRISMA enrichment of interactor (log2),[78],6.08
same,PRISMA enrichment of interactor (log2),[35],5.41
same,PRISMA enrichment of interactor (log2),[36],5.95
same,PRISMA enrichment of interactor (log2),[38],6.35 ± 1.1
same,PRISMA enrichment of interactor (log2),[39],6.17
same,PRISMA enrichment of interactor (log2),[79],4.41
same,PRISMA enrichment of interactor (log2),[80],4.94
same,PRISMA enrichment of interactor (log2),[40],5.37
same,PRISMA enrichment of interactor (log2),[41],5.57
same,PRISMA enrichment of interactor (log2),[81],4.59
same,PRISMA enrichment of interactor (log2),[59],5.37

# Three entries picked at random from the list so far:
binder,measurement,setting,value
MADQDRKPA [TAX1BP1],PRISMA enrichment of interactor (log2),[3],4.28
MTSGRMRGR [ZNF677],PRISMA enrichment of interactor (log2),[40],5.63
MHLPTTLNH [SORBS1],PRISMA enrichment of interactor (log2),[12],4.7

# Quoted from above (2 entries):
binder,measurement,setting,value
MTSGRMRGR [ZNF677],PRISMA enrichment of interactor (log2),[26],6.02
same,PRISMA enrichment of interactor (log2),[27],4.88
